Reference: PubChem BioAssay AID504847 (National Center for Advancing Translational Sciences (NCATS), 2011)
Several values for one entry are separate records, joined by “and”; a condition that tells them apart may be missing. Identical values can stand only once. In all, about 400,000 compounds went through this assay and about 3,700 (0.93%) were called active. This list was built around the results that the source calls inconclusive (neither active nor inactive); the mix of calls is not that of the screen. Calls follow the shape of the dose curve; as a rule, active = well fitted inhibition curve with a large enough effect; inconclusive = small, poorly fitted or top-dose-only effect, or another doubt; inactive = no such curve, though single readings can be large or run the other way. Potencies beside an inconclusive call are fits to weak or partial responses and may not hold up. Some structures have more than one record in an assay (separate samples or runs), and their calls can disagree.

Chains of the proteins cited; added tags and fusions are not shown.
UniProt P11473, whole entry, looked up: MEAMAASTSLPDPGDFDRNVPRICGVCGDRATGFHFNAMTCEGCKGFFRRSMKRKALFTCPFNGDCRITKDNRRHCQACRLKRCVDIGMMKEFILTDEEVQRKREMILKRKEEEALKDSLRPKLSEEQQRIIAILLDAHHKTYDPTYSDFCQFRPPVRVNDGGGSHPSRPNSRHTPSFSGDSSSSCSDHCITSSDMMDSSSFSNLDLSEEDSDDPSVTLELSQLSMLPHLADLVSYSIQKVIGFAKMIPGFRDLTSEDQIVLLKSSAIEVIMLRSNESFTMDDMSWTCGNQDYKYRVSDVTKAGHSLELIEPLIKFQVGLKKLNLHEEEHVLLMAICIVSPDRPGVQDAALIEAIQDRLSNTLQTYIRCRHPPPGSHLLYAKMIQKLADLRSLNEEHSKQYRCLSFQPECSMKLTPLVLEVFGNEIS

biological target: Vitamin D3 receptor (Homo sapiens) (UniProt P11473); test: Inhibitors of the vitamin D receptor (VDR): qHTS; conditions: VDR-SRC2-3 peptide fluorescence polarization, 2 h; max response, negative = inhibition: active compounds read low
Outline: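 The screen uses fluorescence polarization to detect compounds that interfere with recruitment of the SRC2-3 coactivator peptide to VDR; plates are read after 2 h at room temperature.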
% is scaled to controls: 0 for no effect and ±100 for the full control effect; potency is read from the fitted curve at half-maximal effect.

Potency, inconclusive:
COC(=O)c1ccc(NC(=O)CSc2nc3cc4ccccc4cc3[nH]2)cc1 3.55 µM [inhibitor, full curve, poor fit]
CCn1c(O)c(C2=c3ccccc3=NC2=O)c2cc(Br)ccc21 39.8 µM [inhibitor, partial curve, poor fit]
Cc1ccc([N+](=O)[O-])cc1S(=O)(=O)NCC1COc2ccccc2O1 (configuration not stated) 100 µM [inhibitor, single point]
Cc1sc2ncn(CC(=O)NCc3ccccc3)c(=O)c2c1C 79.4 µM [inhibitor, partial curve, poor fit]
Cc1cccc(-n2c(N)c(C(=O)N3CCN(C)CC3)sc2=S)c1 25.1 µM [inhibitor, full curve, poor fit]
N#CC(C#N)=C1SC(=Nc2ccccc2)C(=Nc2ccccc2)N1c1ccccc1 0.891 µM [inhibitor, full curve, poor fit]
COc1ccc(OC)c(C(=O)COC(=O)COc2ccccc2)c1 7.94 µM [inhibitor, full curve]
CCN(CC(=O)NCCC1=CCCCC1)S(=O)(=O)c1ccccc1 0.631 µM [inhibitor, full curve, poor fit]
COc1ccc(C(C(=O)NC2CCCCC2)N(C(=O)Cc2c[nH]c3ccccc23)c2ccccc2)cc1OC (configuration not stated) 20 µM [inhibitor, single point]
CCOc1ccc(C(=O)Nc2ccc3nc4c(c(Nc5ccccc5OC)c3c2)CCCC4)cc1 89.1 µM [inhibitor, single point]
CCOc1ccc(/C(O)=C2/C(=O)C(=O)N(CCOCCO)C2c2ccc(F)cc2)cc1 (configuration not stated) 25.1 µM [inhibitor, single point]
O=C1NC2(CCCCCC2)C(=O)N1Cc1cccc([N+](=O)[O-])c1 17.8 µM [inhibitor, partial curve, poor fit]
CCc1oc2ccccc2c1C(=O)CCN1CCCCC1 56.2 µM [inhibitor, partial curve, poor fit]
CC(=O)Oc1cc2c3c(c1)/C(=C1/SC(=S)NC1=O)C(=O)N3C(C)(C)C=C2C 79.4 µM [inhibitor, partial curve]
CCOC(=O)/C=C/S(=O)(=O)c1ccc(NC(C)=O)cc1 50.1 µM [inhibitor, partial curve, poor fit]
COc1ccc2c(c1OC)C(=O)N1N=C(c3ccc(F)cc3)CC21 (configuration not stated) 39.8 µM [inhibitor, single point]
c1ccc(CCc2cn(C[C@H]3CC[C@@H]([C@@H]4CC[C@H](Cn5cc(CCc6ccccc6)nn5)O4)O3)nn2)cc1 79.4 µM [inhibitor, single point]
CCOc1ccc(OCCn2c(=S)[nH]c3ccccc32)cc1 89.1 µM [inhibitor, partial curve, poor fit]
O=C(O)c1cccc(NC(=S)N/N=C/c2ccccc2OCc2cccc(Br)c2)c1 89.1 µM [inhibitor, single point]
CCc1ccc(NC(=O)CCNC(=O)Cn2cnc3ccccc3c2=O)cc1 79.4 µM [inhibitor, partial curve]
COc1ccc(O[C@@H]2O[C@H](COC(C)=O)[C@@H](OC(C)=O)[C@H](OC(C)=O)[C@H]2NC(C)=O)cc1 79.4 µM [inhibitor, partial curve, poor fit]
COc1ccc(N2Cc3cccc(C(=O)NC(C)CCc4ccco4)c3C2=O)cc1 (configuration not stated) 100 µM [inhibitor, single point]
Fc1ccc(NC(=S)NC2CC3CCCC(C2)N3Cc2cccs2)cc1 (configuration not stated) 8.91 µM [inhibitor, partial curve]
CCCOc1ccc(/C(O)=C2/C(=O)C(=O)N(c3ccccn3)C2c2ccc(OC)cc2)cc1C (configuration not stated) 89.1 µM [inhibitor, single point]
O=c1[nH]c(CSc2nnc(COc3ccccc3)n2-c2ccccc2)nc2ccccc12 22.4 µM [inhibitor, single point]
COc1cccc(CNC(=O)Cn2ccc3cc(S(=O)(=O)N4CCC(C)CC4)ccc32)c1 12.6 µM [inhibitor, partial curve, poor fit]
CCOc1ccc(/C=C\c2nc(O)c([N+](=O)[O-])c(=O)[nH]2)cc1OCC 39.8 µM [inhibitor, single point]
CC(C)(C)C(=O)Nc1nc2c(s1)COc1ccccc1-2 89.1 µM [inhibitor, partial curve]
COc1cc(OC)cc(C(=O)NCc2ccc3[nH]c(C)cc3c2)c1 79.4 µM [inhibitor, partial curve, poor fit]
CN(C)c1ccc(C(=C2C=CC(=[N+](C)C)C=C2)c2ccccc2)cc1 39.8 µM [inhibitor, partial curve, poor fit] and 10 µM [inhibitor, full curve]
CCOc1cc2c(cc1OC)C(c1cccc([N+](=O)[O-])c1)NCC2 (configuration not stated) 31.6 µM [inhibitor, single point]
COc1cccc(NC(=O)COC(=O)c2cc(=O)c3ccccc3o2)c1 79.4 µM [inhibitor, single point]
COc1ccccc1C1C=C(c2ccc(Cl)cc2)Nc2nc(-c3ccc(Cl)cc3)nn21 (configuration not stated) 89.1 µM [inhibitor, single point]
C=CCOc1ccc(C2C(C(=O)c3ccco3)=C(O)C(=O)N2c2nnc(C)s2)cc1 (configuration not stated) 56.2 µM [inhibitor, partial curve, poor fit]
COCCn1c(SCC(=O)c2ccc(Cl)cc2)nnc1C(C)C 56.2 µM [inhibitor, partial curve, poor fit]
Cc1ccc(-c2nc(=S)c3c(n2Cc2ccco2)CC(C)(C)OC3)cc1 79.4 µM [inhibitor, single point]
O=C(N[C@H]1C/C=C\C(c2ccc(F)cc2)N(Cc2ccccc2)C(=O)C1)OCC1c2ccccc2-c2ccccc21 (some centres not stated) 100 µM [inhibitor, single point]

Potency, active:
CCN(CC)CCC(=O)N1C/C(=C/c2ccccc2)C(=O)/C(=C\c2ccccc2)C1 44.7 µM
COc1ccccc1NC(=O)CSC(N)=O 22.4 µM
Cc1cc(C)c2c(=O)n(CC(=O)Nc3cccc(F)c3)sc2n1 14.1 µM
O=C(O)CN1C(=O)/C(=C\c2cccc(OCc3ccc(F)cc3)c2)SC1=S 44.7 µM
CCCCC/C=C\C/C=C\C/C=C\CCCCC(=O)O 39.8 µM
N#Cc1cccc(-c2nccc(-n3ccnc3)n2)c1 50.1 µM
CC(=O)Nc1ccc(SCCN2CCN(CC(C)C)CCC2=O)cc1 50.1 µM
N#CC1=C(S)N(c2ccccc2)C2(CCCCC2)NC1=O 35.5 µM
COc1cc(C/C=C\c2ccccc2)c(OC)cc1O 44.7 µM

Max response, negative = inhibition, inactive:
Cc1ccc(NC(=O)C2CCCN(c3ncnc4onc(C)c34)C2)cc1Cl (configuration not stated) 3.96%
CC(C)c1ccc(C2C3=C(CC(C)(C)CC3=O)NC3=C2C(=O)c2ccccc23)cc1 (configuration not stated) 7.99%
O=[N+]([O-])c1ccc(NNS(=O)(=O)c2cc(Cl)ccc2Cl)nc1 -3.79%
Cc1cc(-c2ccccc2)nc(N/N=C/c2ccco2)n1 -3.97%
Cc1ccc(CSc2nncn3c2cc2sccc23)cc1 6.59%
CCN1CCN(Cc2ccc(NC(=O)c3ccc(C)c(NC(=O)N4CCNC4=O)c3)cc2C(F)(F)F)CC1 -5.23% and 4.91%
CC1Cc2nc(SCC(=O)Nc3ccc4c(c3)OCCO4)n(C)c(=O)c2S1 (configuration not stated) 8.43%
CC(=O)N1c2ccccc2C2CCCC[C@H]21 (some centres not stated) -2.52%
Cn1c(N)c(C(=O)COC(=O)CSc2ccccc2)c(=O)n(C)c1=O -0.783%
Cc1ccc(CNC(=O)CCc2ccc(S(=O)(=O)NC3CCCCC3)cc2)cc1 -22.7%
Cc1nc(C)c(C(=O)NNC(=O)c2ccc(Br)cc2)s1 -7%
Cc1ccnc(NC(=O)c2cccc([N+](=O)[O-])c2C)c1 0.932%
COc1cc(OC)c(C(=O)Oc2ccc3c(c2)OCO3)cc1OC -3.89%
CC(=O)c1cc(CN2CCN(C3CCCCC3)C(CCO)C2)cs1 (configuration not stated) -11.7%
O=c1c(-c2ccccc2)nc2cnc(Oc3cccc(Cl)c3)nc2n1C[C@H]1CCCO1 -2.21%
Cn1c(Oc2ccc(F)cc2)c(C=O)c2ccccc21 8.45%
CC(=O)OCC(=O)N1N=C(c2ccc3ccccc3c2)CC1c1ccccc1 (configuration not stated) -5.93%
O=C(c1ccc(F)cc1)C1CCN(CCn2c(=S)[nH]c3ccccc3c2=O)CC1 -4.16%
COc1ccc(C(=S)N2CCOCC2)cc1OC(=O)c1cccc([N+](=O)[O-])c1 -6.44%
Cc1ccc(CNC(=O)c2c(-c3ccccc3Cl)noc2C)cc1 11.1%
O=C(c1ccc(S(=O)(=O)Nc2ccccc2)cc1)N1CCCC(C(F)(F)F)C1 (configuration not stated) 15.7%
